Where a chain is given by its changes, count along the chain named. Numbers in names are those of the source. No constants are given. Whether binding was seen depends on the method and setting. Binding seen in cells or lysates may run through a third protein. Some entries that bind do so weakly or less than the wild type. Tags and fused reporters may be left off the sequences shown.
B1: KDM2A (full length, amino acids 1–1162) (protein, UniProt Q9Y2K7-1 1-1162)
chain: MEPEEERIRYSQRLRGTMRRRYEDDGISDDEIEGKRTFDLEEKLHTNKYNANFVTFMEGKDFNVEYIQRGGLRDPLIFKNSDGLGIKMPDPDFTVNDVKMCVGSRRMVDVMDVNTQKGIEMTMAQWTRYYETPEEEREKLYNVISLEFSHTRLENMVQRPSTVDFIDWVDNMWPRHLKESQTESTNAILEMQYPKVQKYCLMSVRGCYTDFHVDFGGTSVWYHIHQGGKVFWLIPPTAHNLELYENWLLSGKQGDIFLGDRVSDCQRIELKQGYTFVIPSGWIHAVYTPTDTLVFGGNFLHSFNIPMQLKIYNIEDRTRVPNKFRYPFYYEMCWYVLERYVYCITNRSHLTKEFQKESLSMDLELNGLESGNGDEEAVDREPRRLSSRRSVLTSPVANGVNLDYDGLGKTCRSLPSLKKTLAGDSSSDCSRGSHNGQVWDPQCAPRKDRQVHLTHFELEGLRCLVDKLESLPLHKKCVPTGIEDEDALIADVKILLEELANSDPKLALTGVPIVQWPKRDKLKFPTRPKVRVPTIPITKPHTMKPAPRLTPVRPAAASPIVSGARRRRVRCRKCKACVQGECGVCHYCRDMKKFGGPGRMKQSCVLRQCLAPRLPHSVTCSLCGEVDQNEETQDFEKKLMECCICNEIVHPGCLQMDGEGLLNEELPNCWECPKCYQEDSSEKAQKRKMEESDEEAVQAKVLRPLRSCDEPLTPPPHSPTSMLQLIHDPVSPRGMVTRSSPGAGPSDHHSASRDERFKRRQLLRLQATERTMVREKENNPSGKKELSEVEKAKIRGSYLTVTLQRPTKELHGTSIVPKLQAITASSANLRHSPRVLVQHCPARTPQRGDEEGLGGEEEEEEEEEEEDDSAEEGGAARLNGRGSWAQDGDESWMQREVWMSVFRYLSRRELCECMRVCKTWYKWCCDKRLWTKIDLSRCKAIVPQALSGIIKRQPVSLDLSWTNISKKQLTWLVNRLPGLKDLLLAGCSWSAVSALSTSSCPLLRTLDLRWAVGIKDPQIRDLLTPPADKPGQDNRSKLRNMTDFRLAGLDITDATLRLIIRHMPLLSRLDLSHCSHLTDQSSNLLTAVGSSTRYSLTELNMAGCNKLTDQTLIYLRRIANVTLIDLRGCKQITRKACEHFISDLSINSLYCLSDEKLIQKIS
B2: KDM2A lacking an A region (protein, UniProt Q9Y2K7-1)
chain: MEPEEERIRYSQRLRGTMRRRYEDDGISDDEIEGKRTFDLEEKLHTNKYNANFVTFMEGKDFNVEYIQRGGLRDPLIFKNSDGLGIKMPDPDFTVNDVKMCVGSRRMVDVMDVNTQKGIEMTMAQWTRYYETPEEEREKLYNVISLEFSHTRLENMVQRPSTVDFIDWVDNMWPRHLKESQTESTNAILEMQYPKVQKYCLMSVRGCYTDFHVDFGGTSVWYHIHQGGKVFWLIPPTAHNLELYENWLLSGKQGDIFLGDRVSDCQRIELKQGYTFVIPSGWIHAVYTPTDTLVFGGNFLHSFNIPMQLKIYNIEDRTRVPNKFRYPFYYEMCWYVLERYVYCITNRSHLTKEFQKESLSMDLELNGLESGNGDEEAVDREPRRLSSRRSVLTSPVANGVNLDYDGLGKTCRSLPSLKKTLAGDSSSDCSRGSHNGQVWDPQCAPRKDRQVHLTHFELEGLRCLVDKLESLPLHKKCVPTGIEDEDALIADVKILLEELANSDPKLALTGVPIVQWPKRDKLKFPTRPKVRVPTIPITKPHTMKPAPRLTPVRPAAASPIVSGARRRRVRCRKCKACVQGECGVCHYCRDMKKFGGPGRMKQSCVLRQCLAPRLPHSVTCSLCGEVDQNEETQDFEKKLMECCICNEIVHPGCLQMDGEGLLNEELPNCWECPKCYQEDSSEKAQKRKMEESDEEAVQAKVLRPLRSCDEPLTPPPHSPTSMLQLIHDPVSPRGMVTRSSPGAGPSDHHSASRDERFKRRQLLRLQATERTMVREKENNPSGKKELSEVEKAKIRGSYLTVTLQRPTKELHGTSIVPKLQASGIIKRQPVSLDLSWTNISKKQLTWLVNRLPGLKDLLLAGCSWSAVSALSTSSCPLLRTLDLRWAVGIKDPQIRDLLTPPADKPGQDNRSKLRNMTDFRLAGLDITDATLRLIIRHMPLLSRLDLSHCSHLTDQSSNLLTAVGSSTRYSLTELNMAGCNKLTDQTLIYLRRIANVTLIDLRGCKQITRKACEHFISDLSINSLYCLSDEKLIQKIS
B3: KDM2A lacking a B region (domain or fragment, UniProt Q9Y2K7-1 1-1118)
chain: MEPEEERIRYSQRLRGTMRRRYEDDGISDDEIEGKRTFDLEEKLHTNKYNANFVTFMEGKDFNVEYIQRGGLRDPLIFKNSDGLGIKMPDPDFTVNDVKMCVGSRRMVDVMDVNTQKGIEMTMAQWTRYYETPEEEREKLYNVISLEFSHTRLENMVQRPSTVDFIDWVDNMWPRHLKESQTESTNAILEMQYPKVQKYCLMSVRGCYTDFHVDFGGTSVWYHIHQGGKVFWLIPPTAHNLELYENWLLSGKQGDIFLGDRVSDCQRIELKQGYTFVIPSGWIHAVYTPTDTLVFGGNFLHSFNIPMQLKIYNIEDRTRVPNKFRYPFYYEMCWYVLERYVYCITNRSHLTKEFQKESLSMDLELNGLESGNGDEEAVDREPRRLSSRRSVLTSPVANGVNLDYDGLGKTCRSLPSLKKTLAGDSSSDCSRGSHNGQVWDPQCAPRKDRQVHLTHFELEGLRCLVDKLESLPLHKKCVPTGIEDEDALIADVKILLEELANSDPKLALTGVPIVQWPKRDKLKFPTRPKVRVPTIPITKPHTMKPAPRLTPVRPAAASPIVSGARRRRVRCRKCKACVQGECGVCHYCRDMKKFGGPGRMKQSCVLRQCLAPRLPHSVTCSLCGEVDQNEETQDFEKKLMECCICNEIVHPGCLQMDGEGLLNEELPNCWECPKCYQEDSSEKAQKRKMEESDEEAVQAKVLRPLRSCDEPLTPPPHSPTSMLQLIHDPVSPRGMVTRSSPGAGPSDHHSASRDERFKRRQLLRLQATERTMVREKENNPSGKKELSEVEKAKIRGSYLTVTLQRPTKELHGTSIVPKLQAITASSANLRHSPRVLVQHCPARTPQRGDEEGLGGEEEEEEEEEEEDDSAEEGGAARLNGRGSWAQDGDESWMQREVWMSVFRYLSRRELCECMRVCKTWYKWCCDKRLWTKIDLSRCKAIVPQALSGIIKRQPVSLDLSWTNISKKQLTWLVNRLPGLKDLLLAGCSWSAVSALSTSSCPLLRTLDLRWAVGIKDPQIRDLLTPPADKPGQDNRSKLRNMTDFRLAGLDITDATLRLIIRHMPLLSRLDLSHCSHLTDQSSNLLTAVGSSTRYSLTELNMAGCNKLTDQTLIYLRRI
B4: GFP-KDM2A (amino acids 667–1118) (domain or fragment, UniProt Q9Y2K7-1 667-1118)
chain: PNCWECPKCYQEDSSEKAQKRKMEESDEEAVQAKVLRPLRSCDEPLTPPPHSPTSMLQLIHDPVSPRGMVTRSSPGAGPSDHHSASRDERFKRRQLLRLQATERTMVREKENNPSGKKELSEVEKAKIRGSYLTVTLQRPTKELHGTSIVPKLQAITASSANLRHSPRVLVQHCPARTPQRGDEEGLGGEEEEEEEEEEEDDSAEEGGAARLNGRGSWAQDGDESWMQREVWMSVFRYLSRRELCECMRVCKTWYKWCCDKRLWTKIDLSRCKAIVPQALSGIIKRQPVSLDLSWTNISKKQLTWLVNRLPGLKDLLLAGCSWSAVSALSTSSCPLLRTLDLRWAVGIKDPQIRDLLTPPADKPGQDNRSKLRNMTDFRLAGLDITDATLRLIIRHMPLLSRLDLSHCSHLTDQSSNLLTAVGSSTRYSLTELNMAGCNKLTDQTLIYLRRI
B5: GFP-KDM2A (amino acids 667–1162, d822–946) (domain or fragment, UniProt Q9Y2K7-1)
chain: PNCWECPKCYQEDSSEKAQKRKMEESDEEAVQAKVLRPLRSCDEPLTPPPHSPTSMLQLIHDPVSPRGMVTRSSPGAGPSDHHSASRDERFKRRQLLRLQATERTMVREKENNPSGKKELSEVEKAKIRGSYLTVTLQRPTKELHGTSIVPKLQASGIIKRQPVSLDLSWTNISKKQLTWLVNRLPGLKDLLLAGCSWSAVSALSTSSCPLLRTLDLRWAVGIKDPQIRDLLTPPADKPGQDNRSKLRNMTDFRLAGLDITDATLRLIIRHMPLLSRLDLSHCSHLTDQSSNLLTAVGSSTRYSLTELNMAGCNKLTDQTLIYLRRIANVTLIDLRGCKQITRKACEHFISDLSINSLYCLSDEKLIQKIS
B6: GFP-A’ region (KDM2A amino acids 667–946) (domain or fragment, UniProt Q9Y2K7-1 667-946)
chain: PNCWECPKCYQEDSSEKAQKRKMEESDEEAVQAKVLRPLRSCDEPLTPPPHSPTSMLQLIHDPVSPRGMVTRSSPGAGPSDHHSASRDERFKRRQLLRLQATERTMVREKENNPSGKKELSEVEKAKIRGSYLTVTLQRPTKELHGTSIVPKLQAITASSANLRHSPRVLVQHCPARTPQRGDEEGLGGEEEEEEEEEEEDDSAEEGGAARLNGRGSWAQDGDESWMQREVWMSVFRYLSRRELCECMRVCKTWYKWCCDKRLWTKIDLSRCKAIVPQAL
B7: GFP-A’ region (KDM2A amino acids 667–946, S731A) (domain or fragment, UniProt Q9Y2K7-1 667-946)
chain: B6 chain with S65A
B8: GFP-KDM2A (amino acids 667–1118, S731A) (domain or fragment, UniProt Q9Y2K7-1 667-1118)
chain: B4 chain with S65A
B9: KDM2A (amino acids 1–824) (domain or fragment, UniProt Q9Y2K7-1 1-824)
chain: MEPEEERIRYSQRLRGTMRRRYEDDGISDDEIEGKRTFDLEEKLHTNKYNANFVTFMEGKDFNVEYIQRGGLRDPLIFKNSDGLGIKMPDPDFTVNDVKMCVGSRRMVDVMDVNTQKGIEMTMAQWTRYYETPEEEREKLYNVISLEFSHTRLENMVQRPSTVDFIDWVDNMWPRHLKESQTESTNAILEMQYPKVQKYCLMSVRGCYTDFHVDFGGTSVWYHIHQGGKVFWLIPPTAHNLELYENWLLSGKQGDIFLGDRVSDCQRIELKQGYTFVIPSGWIHAVYTPTDTLVFGGNFLHSFNIPMQLKIYNIEDRTRVPNKFRYPFYYEMCWYVLERYVYCITNRSHLTKEFQKESLSMDLELNGLESGNGDEEAVDREPRRLSSRRSVLTSPVANGVNLDYDGLGKTCRSLPSLKKTLAGDSSSDCSRGSHNGQVWDPQCAPRKDRQVHLTHFELEGLRCLVDKLESLPLHKKCVPTGIEDEDALIADVKILLEELANSDPKLALTGVPIVQWPKRDKLKFPTRPKVRVPTIPITKPHTMKPAPRLTPVRPAAASPIVSGARRRRVRCRKCKACVQGECGVCHYCRDMKKFGGPGRMKQSCVLRQCLAPRLPHSVTCSLCGEVDQNEETQDFEKKLMECCICNEIVHPGCLQMDGEGLLNEELPNCWECPKCYQEDSSEKAQKRKMEESDEEAVQAKVLRPLRSCDEPLTPPPHSPTSMLQLIHDPVSPRGMVTRSSPGAGPSDHHSASRDERFKRRQLLRLQATERTMVREKENNPSGKKELSEVEKAKIRGSYLTVTLQRPTKELHGTSIVPKLQAITA

By UniProt entry, the sequences of proteins in these tests, tags left out.
UniProt Q9UPP1: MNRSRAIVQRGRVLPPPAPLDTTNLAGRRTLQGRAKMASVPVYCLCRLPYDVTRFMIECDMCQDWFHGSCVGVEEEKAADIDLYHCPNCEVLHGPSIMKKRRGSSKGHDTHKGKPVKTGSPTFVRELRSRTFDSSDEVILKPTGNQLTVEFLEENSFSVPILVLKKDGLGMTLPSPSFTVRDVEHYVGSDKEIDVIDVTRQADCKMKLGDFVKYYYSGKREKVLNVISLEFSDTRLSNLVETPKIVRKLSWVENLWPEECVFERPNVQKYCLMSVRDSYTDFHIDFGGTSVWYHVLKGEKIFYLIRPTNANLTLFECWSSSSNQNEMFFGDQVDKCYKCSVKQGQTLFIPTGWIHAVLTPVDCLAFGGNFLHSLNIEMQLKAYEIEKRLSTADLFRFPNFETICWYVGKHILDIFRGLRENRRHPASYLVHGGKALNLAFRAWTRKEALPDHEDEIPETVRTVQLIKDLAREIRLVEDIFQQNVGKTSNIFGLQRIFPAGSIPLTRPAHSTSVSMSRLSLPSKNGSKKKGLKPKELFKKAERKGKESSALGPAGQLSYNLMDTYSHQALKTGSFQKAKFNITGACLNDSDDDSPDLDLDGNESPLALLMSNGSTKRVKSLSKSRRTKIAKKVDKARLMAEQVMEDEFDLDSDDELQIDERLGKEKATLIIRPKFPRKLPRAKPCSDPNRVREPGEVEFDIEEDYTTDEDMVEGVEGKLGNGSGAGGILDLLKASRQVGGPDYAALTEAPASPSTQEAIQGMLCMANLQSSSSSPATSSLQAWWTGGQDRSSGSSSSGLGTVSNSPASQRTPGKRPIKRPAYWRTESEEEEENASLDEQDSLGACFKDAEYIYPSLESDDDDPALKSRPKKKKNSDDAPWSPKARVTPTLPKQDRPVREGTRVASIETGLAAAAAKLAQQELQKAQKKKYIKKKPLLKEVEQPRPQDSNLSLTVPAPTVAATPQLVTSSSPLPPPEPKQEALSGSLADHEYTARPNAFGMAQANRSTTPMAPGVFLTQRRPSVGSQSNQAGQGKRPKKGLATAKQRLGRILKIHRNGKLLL

The binders below were run against Flag-tagged PHF8 (PHD finger protein 8) (UniProt Q9UPP1) (assay: co-IP; Flag-PHF8 co-expressed with KDM2A or KDM2A constructs in 293T cells; lysates in IP buffer (0.1% Triton X-100, 300 mM NaCl, 300 mM sucrose, 1 mM MgCl2, 1 mM EGTA, 10 mM PIPES pH 7.0) precipitated with anti-Flag M2 agarose; Western blot with anti-KDM2A or anti-GFP; in Figure 4A cells with or without 2 mM 2DG for 2 h).
In the case of B1, the binding is reported as “binds”. For B2, the binding was “binds”. With B3 the binding was “binds”. In the case of B4, the binding is reported as “binds”. In the case of B5, the binding is reported as “binds”. With B6 the binding was “binds”. With B7 the binding was “binds”. With B8 the binding was “binds”. B9 was tested, and the binding was “binds weakly”.

From paper PMC12109296
